For three molecules, binding results are on record in patent publication US20210395725A1.

These are yes or no findings as the source states them, for the method shown. Binding can be weak; no strength is given.

Assay [1] addresses human placental laminin (human). Description: flow cytometry, HEK293-6E cell display, 500 nM biotinylated human laminin. (In flow cytometry, cells or beads pass a laser one at a time.)
Assay [2] shares this target. Description: ELISA, biotinylated laminin on streptavidin plate, soluble His-tagged protein. (In general: In an ELISA, binding on a coated surface is turned into a signal by an enzyme label.)

B1: laminin-binding CD81 LEL mutant L2A_LU1 (designed binder)
chain: FVNKDQIAKDVKQFYDQALRECCNTFDANNACAVVKTFHETLDCCGSSTTHSSTGCVLFFNLCPSGSNIISNLFKEDCHQKIDDLFSGK
For B1, the binding result in assay [1] and in assay [2] was “binds” in each case.

B2: laminin-binding CD81 LEL mutant L3B_LU1_2 (designed binder)
chain: FVNKDQIAKDVKQFYDQCLKYACKQGDWENAKACVKTFHETLDCCGSSTVANMTRCVLPANLCPSGSNIISNLFKEDCHQKIDDLFSGK
Consider B2, for which the binding result in assay [1] and in assay [2] was “binds” in each case.

B3: laminin-binding CD81 LEL mutant L3A_LU1 (designed binder)
chain: FVNKDQIAKDVKQFYDQCLLWACSKRYKYNAKACVKTFHETLDCCGSSTMGNLTECVLIENLCPSGSNIISNLFKEDCHQKIDDLFSGK
As for B3, the binding result in assay [1] is on record as “binds”.
